In the supplement of paper PMC5949888:
Most values lie at the floor of the assay. Slopes are relative: functional sequences can read slightly below zero.

Tested on: Saccharomyces cerevisiae PS128 hsf1 delta, HSF1(1-493) fusion
Test: growth estimate (transactivation domain function in HSF1 fusion, heat-shock survival) (a.u. (slope of normalised read count over time)); higher = stronger growth at 37°C, i.e. more transactivation activity
Conditions: library: random library

Row | Substance | growth estimate
1 | KSRSWGEVTLTALTEDDQLT | < -0.25
2 | KSSAKTAGGTDLF | < -0.25
3 | KSSGERKLNRIVGEGPSVKL | < -0.25
4 | KSSLSPSLFYMRD | < -0.25
5 | KSSTWAQVT | < -0.25
6 | KSTGGGSGRSDYVVVNITTR | < -0.25
7 | KSTRGWL | < -0.25
8 | KSVD | < -0.25
9 | KSVGRPLGWTIVDGTENSPP | < -0.25
10 | KSVK | < -0.25
11 | KSYRFPARVSSIQILVGTDA | < -0.25
12 | KTAACKLSLERRVRLIHLSL | < -0.25
13 | KTASLRRL | < -0.25
14 | KTCTSETWLRIGLTWLTKDH | < -0.25
15 | KTCYFSSSAR | < -0.25
16 | KTDCSPTARCNKPRGHAPTR | < -0.25
17 | KTDRRPFIRHGTLCDYAGPT | < -0.25
18 | KTPA | < -0.25
19 | KTPIDANRLNCALSSLCTT | < -0.25
20 | KTRLFNRPKICALRSRVRKA | < -0.25
21 | KTSADKEAFCRGKRLGVS | < -0.25
22 | KTTLVRSPVWRPPLYLISIT | < -0.25
23 | KTVDIGY | < -0.25
24 | KTVGASLVNRLF | < -0.25
25 | KTVTDCLCCGSANGEPTRRG | < -0.25

From no. 3 to 7, as listed above:
Row | Substance | growth estimate
3 | KSSGERKLNRIVGEGPSVKL | < -0.25
4 | KSSLSPSLFYMRD | < -0.25
5 | KSSTWAQVT | < -0.25
6 | KSTGGGSGRSDYVVVNITTR | < -0.25
7 | KSTRGWL | < -0.25

More results follow.

Row | Substance | growth estimate
26 | KTWH | < -0.25
27 | KVACVKPETWIHP | < -0.25
28 | KVFYVACSLHLDLDAVNYRK | < -0.25
29 | KVGNTERLPRIDFKECRARV | < -0.25
30 | KVGSLCLVPMATEGHPDNAL | < -0.25
31 | KVGTGEEVSMGGHIGKN | < -0.25
32 | KVIKLTLNPGVVNMAFCHLM | < -0.25
33 | KVISLGNILKLP | < -0.25
34 | KVISLTKGRKVF | < -0.25
35 | KVKILWPKGRPHVGTANWST | < -0.25
36 | KVKSYPENLSSFTGQVKYPL | < -0.25
37 | KVNLFV | < -0.25
38 | KVNRASYGVNVGCL | < -0.25
39 | KVNVLSFVKGSPGTAGFILC | < -0.25
40 | KVPLCQGSARVGRSRDLFAC | < -0.25
41 | KVQVQRRAISRAAS | < -0.25
42 | KVRGEIDFASCENNIKCGQS | < -0.25
43 | KVRPLIRAFKRDPESSIPRV | -0.237
44 | KVRVGTPLAVRQVC | < -0.25
45 | KVVFGVGVT | < -0.25
46 | KVVIRVPISTIRKCSEAGSP | < -0.25
47 | KVYGAIAILERSYAAPTQRQ | < -0.25
48 | KVYSEVVLVHLDLMWISGAA | < -0.25
49 | KWGVNGN | < -0.25
50 | KWQYNLCILTRAIYGAATEY | < -0.25

Row | Substance | growth estimate
51 | KWVGLSL | < -0.25
52 | KYDSAAWSDILFNKSRCLGG | < -0.25
53 | KYFGTGGSPWHT | -0.246
54 | KYICYNSEHSSLTLLISRVD | < -0.25
55 | KYKPDWEYYWAGRNQVAALQ | < -0.25
56 | KYQ | < -0.25
57 | KYSKGGVG | < -0.25
58 | KYVIDD | < -0.25
59 | KYVKFHDGIASNTDRIRLC | < -0.25
60 | LAAKQSRISFASTRLVLGFG | < -0.25
61 | LAAKRGFPVIQCVSFQPHLR | < -0.25
62 | LAAVCREVLELQNRGRAIQY | < -0.25
63 | LAAVYGTT | < -0.25
64 | LAC | < -0.25
65 | LACFSFHSGFREPQGVSVRH | < -0.25
66 | LADLIVMLLCGITQSALPFA | < -0.25
67 | LADWCWNV | < -0.25
68 | LAEILVECIAGGWTCRFAYK | < -0.25
69 | LAEIMGALRCHHLM | < -0.25
70 | LAEVPQNVAE | < -0.25
71 | LAFFRSREIRRAIFAWRTKR | < -0.25
72 | LAFGSSA | < -0.25
73 | LAFH | < -0.25
74 | LAGHCTACVGRS | < -0.25
75 | LAGPLMGSIAANRFMQGTKQ | < -0.25

Row | Substance | growth estimate
76 | LAGRSDNQACREVL | < -0.25
77 | LAGRSTNRCGLVSTVKRGWR | < -0.25
78 | LAIHVRTLGPFEAPGYQIPR | < -0.25
79 | LAILG | < -0.25
80 | LAIRALVRVIVRVGGEVVAQ | < -0.25
81 | LALCRCIRL | < -0.25
82 | LALIRRSITA | < -0.25
83 | LALTNRQLLHYIV | < -0.25
84 | LALWRGGRRISTRMTYCMSL | < -0.25
85 | LAMVRARFLVCYWIDKYY | -0.245
86 | LANRERSCSLWPLSSCNDDG | < -0.25
87 | LAPDRKHRIM | < -0.25
88 | LAPGVP | < -0.25
89 | LAPTSKGNAKGWGMVGALTI | < -0.25
90 | LAPVIMTKWGSSIRTLIQAV | < -0.25
91 | LAQSCSVC | < -0.25
92 | LARGGTACDDTVPKRHVSTG | < -0.25
93 | LARLS | < -0.25
94 | LARNKGLHL | < -0.25
95 | LARTRAYGHLLRTVN | < -0.25
96 | LARWGTPNRTRMPSRTPIRA | < -0.25
97 | LASETVRWRCF | < -0.25
98 | LASFLGPTACEES | < -0.25
